Test [1] addresses T1, TIP47 (human (endogenous in PLC)) (UniProt O60664).
T1 sequence: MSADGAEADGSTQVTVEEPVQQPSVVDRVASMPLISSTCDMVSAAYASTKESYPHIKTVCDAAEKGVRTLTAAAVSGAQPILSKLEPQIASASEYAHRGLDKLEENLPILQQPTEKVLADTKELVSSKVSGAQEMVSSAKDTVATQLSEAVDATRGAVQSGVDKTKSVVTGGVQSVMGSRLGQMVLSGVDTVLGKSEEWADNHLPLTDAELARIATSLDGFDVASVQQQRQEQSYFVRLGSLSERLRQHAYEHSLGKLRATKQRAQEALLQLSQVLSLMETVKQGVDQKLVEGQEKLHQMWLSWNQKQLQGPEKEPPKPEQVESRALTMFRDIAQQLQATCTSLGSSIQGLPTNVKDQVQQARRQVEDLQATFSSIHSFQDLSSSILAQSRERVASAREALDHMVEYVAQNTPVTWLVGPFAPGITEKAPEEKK
Put plainly: affinity purification with mass spectrometry; immunoprecipitation from density gradient fractions LD1, LD2 and LD3 of oleic acid treated PLC cells, methanol precipitated and dissolved in RIPA buffer; mabs TIP47, MLDP-382, AP125 and control VE-cadherin on protein A or G magnetic beads, overnight at 4°C; SDS-PAGE, silver staining, nanoLC-ESI-MS/MS of bands.

Amino acid sequences for entries named in this document (tags omitted).
UniProt Q8NFW8: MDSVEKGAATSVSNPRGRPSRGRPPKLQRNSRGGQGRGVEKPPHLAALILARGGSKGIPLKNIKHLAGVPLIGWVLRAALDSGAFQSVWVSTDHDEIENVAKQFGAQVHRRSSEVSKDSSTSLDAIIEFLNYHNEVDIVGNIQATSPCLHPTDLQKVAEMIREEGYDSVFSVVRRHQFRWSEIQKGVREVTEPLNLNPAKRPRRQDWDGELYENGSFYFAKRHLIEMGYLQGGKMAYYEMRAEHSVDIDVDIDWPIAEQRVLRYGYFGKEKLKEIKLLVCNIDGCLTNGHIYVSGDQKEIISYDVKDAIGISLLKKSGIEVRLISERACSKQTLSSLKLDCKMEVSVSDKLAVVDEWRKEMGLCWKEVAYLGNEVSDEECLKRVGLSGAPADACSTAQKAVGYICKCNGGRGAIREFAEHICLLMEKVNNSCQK

Test [2] deals with T2, Adipophilin (human (endogenous in PLC)) (UniProt Q99541).
T2 sequence: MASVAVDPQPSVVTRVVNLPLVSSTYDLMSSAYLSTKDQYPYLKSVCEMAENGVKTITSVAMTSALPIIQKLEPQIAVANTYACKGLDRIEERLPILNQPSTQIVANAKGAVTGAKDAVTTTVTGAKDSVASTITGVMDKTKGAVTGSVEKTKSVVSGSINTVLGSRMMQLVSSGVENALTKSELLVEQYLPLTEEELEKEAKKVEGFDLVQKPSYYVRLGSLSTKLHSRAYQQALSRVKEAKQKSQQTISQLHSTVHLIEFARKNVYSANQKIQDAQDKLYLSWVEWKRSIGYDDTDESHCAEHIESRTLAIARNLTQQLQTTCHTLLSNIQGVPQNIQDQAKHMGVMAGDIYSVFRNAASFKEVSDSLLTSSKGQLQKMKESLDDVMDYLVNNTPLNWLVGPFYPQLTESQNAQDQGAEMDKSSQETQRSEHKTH
Described as above.

Results are given in words; binding and its absence hold for the method and conditions named. Binding seen in cells or lysates may run through a third protein. Here binding means that the protein was enriched with, or labelled near, the bait; the list need not be complete. No binding means not detected with the bait.

Turning to Clathrin (human (endogenous in PLC)), the binding result in test [1] is “binds”.

Take “N-acylneuraminate cytidylyltransferase (from UniProt Q8NFW8 1-434) (enzyme)”: the binding entry in test [1] is recorded as “binds”.

As to “fatty acyl-CoA reductase (human (endogenous in PLC)) (enzyme)”, the binding entry in test [1] is “binds”.

Take “serine palmitoyl transferase (human (endogenous in PLC)) (enzyme)”: the binding result in test [1] is on record as “binds”.

As for “sterol-regulatory element binding protein 3 (SREBP-3) (human (endogenous in PLC))”, the binding entry in test [1] is “binds”.

For tubulin (human (endogenous in PLC)), the binding entry in test [1] and in test [2] was “no binding” in each case.

B1: delta-7-sterol reductase (enzyme, UniProt Q9UBM7 1-475)
chain: MAAKSQPNIPKAKSLDGVTNDRTASQGQWGRAWEVDWFSLASVIFLLLFAPFIVYYFIMACDQYSCALTGPVVDIVTGHARLSDIWAKTPPITRKAAQLYTLWVTFQVLLYTSLPDFCHKFLPGYVGGIQEGAVTPAGVVNKYQINGLQAWLLTHLLWFANAHLLSWFSPTIIFDNWIPLLWCANILGYAVSTFAMVKGYFFPTSARDCKFTGNFFYNYMMGIEFNPRIGKWFDFKLFFNGRPGIVAWTLINLSFAAKQRELHSHVTNAMVLVNVLQAIYVIDFFWNETWYLKTIDICHDHFGWYLGWGDCVWLPYLYTLQGLYLVYHPVQLSTPHAVGVLLLGLVGYYIFRVANHQKDLFRRTDGRCLIWGRKPKVIECSYTSADGQRHHSKLLVSGFWGVARHFNYVGDLMGSLAYCLACGGGHLLPYFYIIYMAILLTHRCLRDEHRCASKYGRDWERYTAAVPYRLLPGIF
As for B1, the binding entry in test [1] is reported as “binds”.

B2: Cytokeratin 18 (protein, UniProt P05783 1-430)
chain: MSFTTRSTFSTNYRSLGSVQAPSYGARPVSSAASVYAGAGGSGSRISVSRSTSFRGGMGSGGLATGIAGGLAGMGGIQNEKETMQSLNDRLASYLDRVRSLETENRRLESKIREHLEKKGPQVRDWSHYFKIIEDLRAQIFANTVDNARIVLQIDNARLAADDFRVKYETELAMRQSVENDIHGLRKVIDDTNITRLQLETEIEALKEELLFMKKNHEEEVKGLQAQIASSGLTVEVDAPKSQDLAKIMADIRAQYDELARKNREELDKYWSQQIEESTTVVTTQSAEVGAAETTLTELRRTVQSLEIDLDSMRNLKASLENSLREVEARYALQMEQLNGILLHLESELAQTRAEGQRQAQEYEALLNIKVKLEAEIATYRRLLEDGEDFNLGDALDSSNSMQTIQKTTTRRIVDGKVVSETNDTKVLRH
Regarding B2, in test [2], the binding result is recorded as “binds”.

B3: delta-24-sterol reductase (enzyme, UniProt Q15392 23-516)
chain: LEFVLIHQRWVFVCLFLLPLSLIFDIYYYVRAWVVFKLSSAPRLHEQRVRDIQKQVREWKEQGSKTFMCTGRPGWLTVSLRVGKYKKTHKNIMINLMDILEVDTKKQIVRVEPLVTMGQVTALLTSIGWTLPVLPELDDLTVGGLIMGTGIESSSHKYGLFQHICTAYELVLADGSFVRCTPSENSDLFYAVPWSCGTLGFLVAAEIRIIPAKKYVKLRFEPVRGLEAICAKFTHESQRQENHFVEGLLYSLDEAVIMTGVMTDEAEPSKLNSIGNYYKPWFFKHVENYLKTNREGLEYIPLRHYYHRHTRSIFWELQDIIPFGNNPIFRYLFGWMVPPKISLLKLTQGETLRKLYEQHHVVQDMLVPMKCLQQALHTFQNDIHVYPIWLCPFILPSQPGLVHPKGNEAELYIDIGAYGEPRVKHFEARSCMRQLEKFVRSVHGFQMLYADCYMNREEFWEMFDGSLYHKLREKLGCQDAFPEVYDKICKAARH
On to B3, for which the binding entry in test [1] is listed as “binds”.

B4: AUP1 homolog protein (protein, UniProt Q9Y679 1-410)
chain: MELPSGPGPERLFDSHRLPGDCFLLLVLLLYAPVGFCLLVLRLFLGIHVFLVSCALPDSVLRRFVVRTMCAVLGLVARQEDSGLRDHSVRVLISNHVTPFDHNIVNLLTTCSTPLLNSPPSFVCWSRGFMEMNGRGELVESLKRFCASTRLPPTPLLLFPEEEATNGREGLLRFSSWPFSIQDVVQPLTLQVQRPLVSVTVSDASWVSELLWSLFVPFTVYQVRWLRPVHRQLGEANEEFALRVQQLVAKELGQTGTRLTPADKAEHMKRQRHPRLRPQSAQSSFPPSPGPSPDVQLATLAQRVKEVLPHVPLGVIQRDLAKTGCVDLTITNLLEGAVAFMPEDITKGTQSLPTASASKFPSSGPVTPQPTALTFAKSSWARQESLQERKQALYEYARRRFTERRAQEAD
For the molecule B4, the binding entry in test [1] and in test [2] was “binds” each time.

For the origin of these results see article PMC3660578.
